Assay results taken from the supplement of paper PMC3334620.
Whole data set: some 33,000 sequences, median “E-score (-0.5 to 0.5)” near -0.0059, cut for the highest 2% near 0.26. The list shows a part of the results.

molecular target: T1, Cin5 (UniProt P40917); assay: PBM E-score (8-mer binding enrichment) (E-score (-0.5 to 0.5)); higher = stronger / more preferred TF binding; settings: protein concentration: 100 nM; construct: GST-full length
T1 sequence: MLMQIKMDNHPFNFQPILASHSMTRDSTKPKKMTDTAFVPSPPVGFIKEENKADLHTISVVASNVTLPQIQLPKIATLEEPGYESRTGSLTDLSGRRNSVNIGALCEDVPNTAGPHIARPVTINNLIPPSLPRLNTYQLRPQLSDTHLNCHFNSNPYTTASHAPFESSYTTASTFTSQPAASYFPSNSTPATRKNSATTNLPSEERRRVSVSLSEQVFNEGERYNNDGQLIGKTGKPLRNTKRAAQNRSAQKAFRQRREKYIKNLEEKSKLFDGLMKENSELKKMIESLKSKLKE
Procedure: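 Universal 'all 10-mer' protein binding microarrays (Agilent AMADID 015681) probed with GST-tagged S. cerevisiae TFs (full-length or DBD) made by in vitro transcription/translation (PURExpress), about 100-200 nM. Bound TF was detected with fluorescent anti-GST. Each ungapped 8-mer (which stands for itself and its reverse complement) is scored by the PBM enrichment score (E-score), a modified Wilcoxon-Mann-Whitney statistic from -0.5 to +0.5, computed with the Universal PBM Analysis Suite. Scale: above 0.35 generally sequence-specific binding.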

Sequence	PBM E-score
AATTCCGG	0.155
GAGCTAAC	0.0137
AGTCAGTC	-0.15
ACCCCAAT	0.0988
GCCGGCCA	0.0436
ACTCAACC	0.0912
CGATGCCG	-0.246
CCCATCCA	0.0648
CAAAGCAA	0.137
CGAGCGGC	-0.0196
GCCAAACC	-0.207
GTGAGACA	-0.0456
ATCCTATC	0.0368
AGTCCTTC	-0.296
ATAGGAAA	0.192
ATAATTTC	0.136
GCTCCTCA	-0.351
AGTCAGTA	0.188
TATACTCA	0.21
CCGAAGAA	-0.0648
ACGAACCC	-0.164
CTCGTATC	0.0387
CGGTTTCC	0.0337
CAACAGTC	-0.158
AATCACGA	0.0391

3 records drawn at random from the list so far:
Sequence	PBM E-score
GTGAGACA	-0.0456
ATCCTATC	0.0368
TATACTCA	0.21

Continuation.

Sequence	PBM E-score
CCCTAGGA	-0.242
AGGTACAT	-0.0367
CGTGCATA	0.0611
TTAGATAA	0.32
TCGGACAA	0.0752
ATAAGGTG	0.0425
GACATCGC	-0.0498
ATGGTCCA	-0.25
CACAAAAC	0.206
CCCCATCC	0.00185
GAATTATC	0.145
ATGTCCGC	-0.077
CTGTCTGA	-0.147
TCTGTCAA	-0.0264
TGAGCAAA	0.114
TCGATCAA	-0.0607
AGAACGCA	-0.00096
CAATAACA	0.193
CAAGCTGC	-0.025
CCAAGGAC	-0.227
AGTGCTAC	-0.0926
AGAATTGC	0.11
CCTACATC	0.0465
GCTCATCA	-0.0104
ACAGACAC	-0.0499

Part of the list above, set out differently:
ACCCCAAT
  PBM E-score: 0.0988
GCCGGCCA
  PBM E-score: 0.0436
ACTCAACC
  PBM E-score: 0.0912
CGATGCCG
  PBM E-score: -0.246

(cont.)

Sequence	PBM E-score
CGTGCTTA	0.273
ACTATTCT	0.0707
GCCATCCC	-0.0504
CAATATAC	0.181
CTCGCGTC	0.0152
ACCGCATA	0.108
CCGGCGTC	-0.0574
AGTTGACA	0.119
ACACCGAT	-0.0975
CGGTATTC	0.0748
AAAGTTAT	0.193
CCAGATAG	-0.108
GGTATGAA	0.126
GGGTTGCA	-0.0486
AAGATTGC	-0.00556
CTGCGTGA	0.0468
ATTATATC	0.197
GAGCCCAA	0.185
CTCGAGTC	-0.101
CATGCACC	-0.208
ATGGAGAC	-0.00445
ATCTCGTA	-0.00241
AACGGAGT	0.115
CGAGGTGC	0.209
GCTAGCTA	-0.0995

Sequence	PBM E-score
GGTTAGAA	-0.1
TACTAGAA	0.0441
AGCAAATA	0.134
GGCTCTAA	0.0226
CAAGGGTC	-0.0649
AGGTCAAG	0.0294
CCCGCTTA	0.209
GCAGCTCC	-0.123
CGTAACGC	0.0362
CAGCCATG	-0.0224
GTTGCGTA	0.068
CGAAATAC	0.177
AAGCTATA	-0.0861
GGTGAAAC	-0.143
ACATGACC	-0.0885
TCAGATCA	-0.0379
GTACGAGA	-0.0307
AGTAAGAC	-0.0377
GAAACTCC	-0.209
CTTTTATC	0.158
CTTGTCCC	-0.0876
ATTTCGAA	0.188
CAGGCGAC	-0.141
AGTGTGGG	0.00697
AGCAAAGG	0.0298

Sequence	PBM E-score
GGCGATTA	0.133
AATGCTAA	0.113
ACGCAGAG	0.0271
GGTTAAGA	-0.121
CTATCTGA	-0.0877
GCCGTCGC	-0.0942
ACGCTTTA	-0.169
TAATCTGA	0.164
CAGGTCAC	-0.311
CGATTTCC	0.132
GGCAGATA	-0.00899
CCCACCGA	0.0271
GTAGTACA	0.131
ATCACGAT	0.0551
GGACAGGA	-0.275
ACGCTAAG	-0.222
ATCGAAGG	0.0406
GTGTGAAA	0.145
ATGTGCTA	0.0306
AACTTGAG	-0.188
AGTAACTC	0.0111
GTCCCACA	0.0921
CATCCACA	0.0448
CGACCATC	-0.0947
AGTGGAGA	0.0943

Sequence	PBM E-score
AAGGCTGG	-0.277
CCCAAAAG	0.0282
CTCACGAC	-0.248
ATAGTGGC	-0.00569
ATAGGGGG	-0.321
ACGACAGT	-0.0857
AATACTCA	0.183
TACGCGCA	0.0939
AGTCTGGC	-0.213
CGAACATC	0.0222
GTCCCAGA	-0.267
CCCGTGCA	-0.161
CCTCAGAG	-0.249
AGCCTTAG	-0.197
AGGTGTGC	-0.0771
ACATTATG	0.106
GATTGAAA	0.111
ACATGTTA	0.126
CTAGTATC	0.186
TAACACCA	0.0761
CATAAGCA	0.336
AACATACT	0.0533
CTATATGC	0.212
CGACGCTA	-0.11
AGCCGAGG	0.096

Sequence	PBM E-score
AATTTGAA	0.0459
GATCTAGC	-0.14
CCGATAAG	-0.0811
TCTCGAGA	0.0563
AGGTCTAT	-0.0147
AGATCAAT	0.139
GCTTATAA	0.229
ACCGCAGA	-0.176
CGTTGACC	0.00329
GAAGCATC	-0.0786
CCAATGGA	-0.00717
CAGCTGGC	-0.0922
ACCCCAGG	-0.273
CTTAACGC	-0.0843
AACCAGCT	0.118
AGTCAGAT	0.00282
CTGGAACC	-0.153
AGGCTATG	-0.192
CGTGATTA	0.273
CCAGGCGC	-0.268
GAGTTAAC	-0.0847
ACGACGAC	-0.109
GAACATCA	0.0424
GCTCGTCC	-0.0494
ATGTGTAA	0.148

Sequence	PBM E-score
CAGTGCGC	-0.205
CTTGACAC	-0.156
ATCCGGCC	0.0639
GCCCTATA	-0.00992
TAAAAAGA	0.101
ACGTGCGC	0.0377
CAACGCCA	-0.074
TTCCCAAA	-0.0338
CATGCTGA	0.181
ATACGAGC	0.0999
GTTCTGTA	0.09
CATACTGG	0.0129
ACTTCAGG	-0.0578
AGAACATA	0.142
ATCATACG	0.0906
AAGGAACG	-0.174
ATACTGAA	0.0502
AACACCTG	0.0544
AGCCGCCG	-0.00047
GCGACTCA	-0.00138
GAAAATTA	0.222
GGAACAAA	0.32
CAGGCTCG	-0.141
GTCCCAAA	-0.166
CTAACTAC	-0.0509

A stretch from further up, as a working copy:
Sequence	PBM E-score
CAACGCCA	-0.074
TTCCCAAA	-0.0338
CATGCTGA	0.181
ATACGAGC	0.0999
GTTCTGTA	0.09

Carrying on.

Sequence	PBM E-score
TCACGTGA	0.103
CCGACGGA	0.0352
GTAGGACA	0.0213
CATTTGAC	-0.0297
CTTGAGCA	-0.216
ACGGCAAT	0.273
CCACGTCG	-0.0517
AGAATCAC	-0.13
ACAACGGG	0.0841
GCTTACTA	0.388
ACTCACCG	-0.0737
CGACTAGA	-0.093
CCAGGCTA	-0.263
CGGAATCC	0.0489
CTCGTGCA	-0.122
CGCGATAC	0.0866
AATCCATA	0.194
CGTAGGAC	-0.206
GACACAAA	0.175
CCTTTCTA	-0.0885
ACAAGAAA	0.168
ACCAGGAC	-0.0636
AGGCGAGA	-0.128
AGAATGAG	0.0756
ACAGATCG	-0.0199

Sequence	PBM E-score
AAGCCTAG	-0.0965
CTGCACGC	-0.186
TGAGACCA	-0.078
ATCTGTTG	-0.045
GCGCTATA	0.124
AGCTGCGG	-0.187
CACGTTAA	-0.0144
AGTCCCGG	-0.111
GAAACCCA	0.2
CTTAACAA	0.0617
AAAGCTCA	-0.0849
AGACAATC	0.112
GAGCGGGC	-0.176
ATGGGCAC	0.057
AGGATGAA	-0.0521
GCGCTCAC	0.0267
ACAATGGG	0.136
AGTATAAA	0.282
CGTCTGTA	-0.163
CCCGCGTA	0.0352
CTCGGTAC	-0.272
TACCGGAA	0.0588
CCCGACAA	0.131
CTAGGACC	-0.276
AGTAGAGA	0.00616

Sequence	PBM E-score
GGTGTCCA	-0.0656
ACTGAAAG	0.0278
CCCTTGGA	-0.101
CCAGCGTA	-0.15
GCGTTTCA	-0.0379
CGTTACAC	0.0126
ATTACACC	0.209
CTACGCAC	-0.185
CATCTGAC	-0.128
CTACTTAC	0.00104
GCCGAACC	-0.132
AACAATTA	0.295
GGTGGGAC	-0.313
AATTCTGT	0.0415
AACTATCC	-0.0479
AGCTATGC	-0.158
CAATGGCA	0.0879
GAGTAGTA	0.118
CCAGTACC	-0.0552
CCTACCCG	-0.066
CACATAGC	-0.142
AGCCGGGG	-0.224
ATGGCGCA	0.146
CGATCGAA	0.189
AATCCGCG	0.0184

Sequence	PBM E-score
ACTATTTA	0.0665
TATTTGCA	0.162
TGTCCACA	0.0175
AAGTATTG	0.165
GGAGCCGA	-0.282
CCCAGTTC	0.175
GTGTTTGA	0.157
ACACTGAT	0.0458
GCTCCGAA	0.0922
AGTATTCC	0.225
CAGCACTA	-0.0379
AATCTTCA	0.199
CGACCCAC	-0.0923
AGGAAGCC	-0.151
AAGCATTG	0.0496
GAACGGAC	-0.141
AGGAGATC	-0.021
AGCCTTAA	-0.0564
AAGGGTAC	-0.137
AACAAGTG	-0.0526
GTGGAGCA	-0.212
GAATTCAA	0.106
CCGAGGTA	0.00392
GGCATCCA	-0.172
GGTTAGCA	-0.0843

Sequence	PBM E-score
AAAAATGC	0.0727
GAAGCTTC	-0.0695
CTTGCCGC	-0.212
CTATTCGA	0.0762
AGATGCAC	-0.0611
CAAAGTCA	0.107
GGCCTAAC	-0.0895
CAACTGCC	0.0563
GCTAGGGA	-0.0341
ATCCACCC	0.126
TCAGTGAA	0.0711
ACCTGGCG	-0.28
CCATGATC	-0.117
AACCTATT	0.148
AGGGAACG	-0.167
ACTGATTG	0.112
CCCTAAGA	-0.244
CCAAGACC	-0.195
CTTTTTCA	-0.0923
ATCGTTCA	0.0852
AGATATAA	0.148
CTAAAGAC	-0.147
AGCTATAA	0.00654
CGGGGAAG	-0.0981
ACGTGAAG	-0.142

Sequence	PBM E-score
ATGAGCAC	-0.0764
CCACGTAC	-0.0849
CAGCGAGA	0.0156
AAAAATCC	0.0745
GATCCAGC	0.0233
AAAGAAAC	0.046
ATTCTGGC	-0.123
CTCAAATC	0.0748
CCACGGCC	-0.3
AACCAAAG	0.0345
AATGTGGG	0.12
ACTGGCCC	0.0258
CCGGGGTA	-0.0599
CCAGGGGG	-0.433
GCGAACAA	0.224
GCGTCTCA	-0.224
AACAGGGC	0.0391
ACCGCCCA	-0.142
AAGAGACA	0.169
